Assay results reported in US20090274670A1.
No constants are given. Whether binding was seen depends on the method and setting. In cells and extracts the contact can be indirect. Some results given as binding are weak or reduced against the parent protein; the word gives no strength. Where a sequence is shown, tags or fusion partners need not be part of it.

Assays:
[1] = target: T1, Dph1 protein fused to a myc tag (mouse dph1 in pcDNA3.1(-)/myc-His A, pcDNA-Dph1-myc) (mouse) (UniProt Q5NCQ5); experiment: co-immunoprecipitation: anti-myc IP, anti-TAP Western blot (FIG. 9, lane 2)
T1 sequence (looked up): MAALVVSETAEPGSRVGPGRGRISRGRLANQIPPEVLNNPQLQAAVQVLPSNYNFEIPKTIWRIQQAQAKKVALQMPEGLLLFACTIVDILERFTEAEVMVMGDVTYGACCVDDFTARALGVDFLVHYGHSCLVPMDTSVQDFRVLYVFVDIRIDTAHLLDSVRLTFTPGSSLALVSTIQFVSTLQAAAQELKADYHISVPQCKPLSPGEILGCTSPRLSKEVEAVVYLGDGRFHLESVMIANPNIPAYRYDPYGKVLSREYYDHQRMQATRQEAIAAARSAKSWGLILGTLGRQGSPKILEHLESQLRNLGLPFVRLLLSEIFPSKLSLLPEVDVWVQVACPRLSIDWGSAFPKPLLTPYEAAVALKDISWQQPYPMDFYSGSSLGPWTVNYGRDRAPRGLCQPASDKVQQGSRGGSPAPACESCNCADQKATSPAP

[2] = target: T1, Dph1 protein fused to a myc tag (mouse dph1 in pcDNA3.1(-)/myc-His A, pcDNA-Dph1-myc) (mouse); experiment: co-immunoprecipitation: anti-myc IP of lysate of 293T cells with Dph1-myc and Dph2(C)-TAP, anti-TAP Western blot

binding [1]: binds | binding [2]: binds
B1: TAP-tagged Dph2(C-) (hamster Dph2 C-terminal deletion mutant, pNC-Dph2(C-)-TAP) (protein, not shown: small tags and cut ends)
chain: MESTFSSPAEAALQREAGVPGLFTPPEDLDRVYELERVTKFVCDLGCQRVALQFPDQLLGDAGAVAVRLEEVTGSKMFILGDTAYGSCCVDVLGAEQAGAEALVHFGPACLSPPASLLPITFVLGQRSVALELCAKAFEARNPDPTAPVVLLSEPACAHALEALATLLRPKYQDLLISSPALPLPVGSPSSQPEPLERFGRRFPLSPGRCLEEYGAFYVGGSQASSDPVLDPDLSRLLLGWTPGRPFISCCPDTGQTQDQGVQAGRLRARRLYLIERARDAHVVGLLAGTLGVAQHREALAHLRKLTEAAGKRSYVLALGRPTPAKLANFPEMDIFVLLACPLGALAPQPSGGFFRPILTPCELEAACNPAWPPPGLAPHLTHYAELLPGSPFYVPLP
